Experimental data reported in US6416987B1, “Mutants of thymidylate synthase and uses thereof” (Sloan Kettering Institute for Cancer Research, priority 1997, dated 2002).

System: TS-negative FSthy21 cells transfected with I108A mutant human TS cDNA
Assay: Growth inhibition assay (alamar Blue), I108A transfectants
Conditions: I108A transfectants vs wild-type transfectants

With `Cc1ccc2nc(N)[nH]c(=O)c2c1Sc1ccncc1` the “resistance, IC50 values greater than wild-type transfectants” value was ≥ 76 fold and at least 78 fold and ≥ 78 fold.

Certain results were filed several times, with different values. The other results are left out here. The source may hold further records. The values listed for one entry differ for a reason that is not stated; they may come from other doses, times, organisms or constructs than stated.
